2 substances from paper PMC9703767 can be followed below.

By UniProt entry, the sequences of proteins in these tests, tags left out.
UniProt O35134: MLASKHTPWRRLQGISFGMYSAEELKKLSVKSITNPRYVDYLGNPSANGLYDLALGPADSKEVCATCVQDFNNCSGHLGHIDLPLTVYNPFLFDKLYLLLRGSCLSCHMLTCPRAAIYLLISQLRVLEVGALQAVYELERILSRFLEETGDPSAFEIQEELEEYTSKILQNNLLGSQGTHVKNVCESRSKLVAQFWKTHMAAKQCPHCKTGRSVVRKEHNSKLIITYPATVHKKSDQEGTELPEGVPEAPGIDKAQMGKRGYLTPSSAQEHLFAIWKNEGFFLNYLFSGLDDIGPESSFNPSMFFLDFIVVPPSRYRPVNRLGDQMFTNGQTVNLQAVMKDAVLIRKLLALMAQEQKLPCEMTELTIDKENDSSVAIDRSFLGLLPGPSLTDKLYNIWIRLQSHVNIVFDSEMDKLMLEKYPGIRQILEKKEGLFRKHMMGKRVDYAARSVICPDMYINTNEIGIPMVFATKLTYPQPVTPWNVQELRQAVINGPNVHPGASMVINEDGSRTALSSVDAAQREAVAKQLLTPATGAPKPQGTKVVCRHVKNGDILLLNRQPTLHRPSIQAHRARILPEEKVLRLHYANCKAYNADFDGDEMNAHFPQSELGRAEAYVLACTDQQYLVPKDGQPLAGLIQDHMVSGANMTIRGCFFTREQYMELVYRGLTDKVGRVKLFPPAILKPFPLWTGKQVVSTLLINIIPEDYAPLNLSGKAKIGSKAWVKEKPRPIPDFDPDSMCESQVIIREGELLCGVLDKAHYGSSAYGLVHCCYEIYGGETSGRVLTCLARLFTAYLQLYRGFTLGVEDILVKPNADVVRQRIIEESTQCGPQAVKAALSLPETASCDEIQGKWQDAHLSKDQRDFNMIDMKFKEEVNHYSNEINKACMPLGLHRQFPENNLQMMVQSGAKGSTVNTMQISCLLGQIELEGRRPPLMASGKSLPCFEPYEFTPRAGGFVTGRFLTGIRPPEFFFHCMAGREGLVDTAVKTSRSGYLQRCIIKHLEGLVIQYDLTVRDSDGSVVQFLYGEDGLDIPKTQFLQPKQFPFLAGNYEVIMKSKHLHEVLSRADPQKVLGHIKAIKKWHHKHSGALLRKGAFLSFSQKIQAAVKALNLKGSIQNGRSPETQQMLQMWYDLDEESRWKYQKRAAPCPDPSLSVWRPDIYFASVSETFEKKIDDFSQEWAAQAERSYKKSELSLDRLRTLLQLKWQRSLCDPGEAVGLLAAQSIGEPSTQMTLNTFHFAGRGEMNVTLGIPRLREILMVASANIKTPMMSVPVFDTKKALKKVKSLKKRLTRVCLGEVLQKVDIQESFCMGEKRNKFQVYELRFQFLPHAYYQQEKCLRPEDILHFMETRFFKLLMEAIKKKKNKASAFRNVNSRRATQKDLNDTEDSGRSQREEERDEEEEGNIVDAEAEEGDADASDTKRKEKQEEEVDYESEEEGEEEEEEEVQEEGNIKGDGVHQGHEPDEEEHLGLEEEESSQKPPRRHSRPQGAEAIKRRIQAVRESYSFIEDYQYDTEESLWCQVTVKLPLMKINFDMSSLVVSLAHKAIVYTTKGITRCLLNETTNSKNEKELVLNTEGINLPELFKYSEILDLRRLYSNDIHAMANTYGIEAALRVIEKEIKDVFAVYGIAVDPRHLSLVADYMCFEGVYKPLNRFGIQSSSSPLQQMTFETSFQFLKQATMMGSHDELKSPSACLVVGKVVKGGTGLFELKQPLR
UniProt P97304: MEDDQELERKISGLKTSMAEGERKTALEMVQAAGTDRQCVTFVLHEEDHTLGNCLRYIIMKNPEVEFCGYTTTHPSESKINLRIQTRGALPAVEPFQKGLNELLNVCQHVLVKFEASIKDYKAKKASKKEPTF
UniProt P52432: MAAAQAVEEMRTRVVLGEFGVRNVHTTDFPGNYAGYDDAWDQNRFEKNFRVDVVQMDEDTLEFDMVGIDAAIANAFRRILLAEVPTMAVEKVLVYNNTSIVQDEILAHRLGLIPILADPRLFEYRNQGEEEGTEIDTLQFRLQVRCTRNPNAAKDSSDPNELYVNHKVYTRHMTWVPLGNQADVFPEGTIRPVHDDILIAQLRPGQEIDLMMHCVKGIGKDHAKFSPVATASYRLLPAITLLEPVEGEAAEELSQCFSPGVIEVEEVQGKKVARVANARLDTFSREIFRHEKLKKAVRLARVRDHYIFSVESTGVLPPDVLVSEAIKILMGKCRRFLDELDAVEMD

The assay concerns the target RNA polymerase I largest subunit RPA1 (mouse (endogenous in mESCs)) (UniProt O35134). The assay can be described thus: affinity purification with mass spectrometry; ChIP coupled to quantitative MS for Pol I, Pol II and Pol III; cells fixed with 1% formaldehyde for 10 min, chromatin fractions treated with MNase and sonicated, antibody enrichment.

These are yes or no findings as the source states them, for the method shown. Binding seen in cells or lysates may run through a third protein. These calls come from enrichment with a bait or labelling near it, and not all partners need be listed.

Consider RPAC2 (from UniProt P97304 1-133), for which the binding result is listed as “binds”.
On to RPAC1 (from UniProt P52432 1-346), for which the binding result is listed as “binds”.
